Assay results: patent US11773108B2, “Indene derivatives useful in treating pain and inflammation” (TARO PHARMACEUTICALS INC., priority 2018, dated 2023)

System: Mice (male, C57BL/6)
Experiment: Formalin pain assay in mice
Type: in vivo, mouse
Conditions: standard compound, 2.5% formalin in left hind paw
Method: Mice (male, C57BL/6) were placed singly in a Perspex chamber for approximately 30 min on three successive days to acclimate and thereby reduce stress-induced behaviors. On the fourth day, the experimental animals received a 25 μl injection of 2.5% formalin beneath the left plantar skin using a 29-gauge syringe. […] The total time spent on flinches/licking/biting of the hind paw was recorded by visual observation for every 5 min period/interval for total observation duration of 60 min in two phases, the early phase (0-5 min) and the late phase (15-40 min). Observers were blinded to the treatment group allocation.
For test compounds, % protection from 0-60 min was used to assess activity. Scoring for the test compounds was as follows: “A” represents a % protection of 81 to 100%, “B” represents a % protection of 61 to 80%, “C” represents a % protection of 31 to 60% and “D” represents a % protection of 0 to 30%.

Question: `COc1cccc(C2(O)CCCCC2CN(C)C)c1` (stereo not shown) [tramadol, reference compound] was tested. Which “Average AUC % Inhibition” value did it give?
Answer: 59%
